Amino acid sequences for entries named in this document (tags omitted).
UniProt A0A0D9RIW4: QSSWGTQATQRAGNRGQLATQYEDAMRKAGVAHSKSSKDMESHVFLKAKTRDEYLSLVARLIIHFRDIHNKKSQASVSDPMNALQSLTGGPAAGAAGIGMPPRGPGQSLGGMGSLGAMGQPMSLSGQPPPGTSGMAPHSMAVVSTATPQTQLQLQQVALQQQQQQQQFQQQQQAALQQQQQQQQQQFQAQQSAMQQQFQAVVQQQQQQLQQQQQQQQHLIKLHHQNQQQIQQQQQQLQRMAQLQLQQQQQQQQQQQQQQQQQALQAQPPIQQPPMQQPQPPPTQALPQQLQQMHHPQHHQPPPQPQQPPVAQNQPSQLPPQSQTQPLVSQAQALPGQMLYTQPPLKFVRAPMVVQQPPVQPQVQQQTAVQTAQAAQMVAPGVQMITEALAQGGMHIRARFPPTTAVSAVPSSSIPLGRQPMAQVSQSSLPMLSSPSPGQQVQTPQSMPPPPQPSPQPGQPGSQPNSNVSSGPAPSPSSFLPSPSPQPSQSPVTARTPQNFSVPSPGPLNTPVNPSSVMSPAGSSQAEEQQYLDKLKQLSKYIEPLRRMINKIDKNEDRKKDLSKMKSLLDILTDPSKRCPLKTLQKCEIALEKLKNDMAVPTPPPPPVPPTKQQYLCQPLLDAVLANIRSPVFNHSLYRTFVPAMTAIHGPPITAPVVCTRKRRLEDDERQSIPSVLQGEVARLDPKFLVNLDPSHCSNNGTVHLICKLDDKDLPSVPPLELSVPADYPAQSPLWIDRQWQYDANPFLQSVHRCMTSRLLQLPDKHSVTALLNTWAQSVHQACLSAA
UniProt A0A0D9S812: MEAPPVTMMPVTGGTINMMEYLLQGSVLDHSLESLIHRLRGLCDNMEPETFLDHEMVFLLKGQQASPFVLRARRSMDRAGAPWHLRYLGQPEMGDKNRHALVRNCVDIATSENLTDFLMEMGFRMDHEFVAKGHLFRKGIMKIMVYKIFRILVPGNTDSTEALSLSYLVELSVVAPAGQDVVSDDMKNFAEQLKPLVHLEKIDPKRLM
UniProt A0A0D9RJH3: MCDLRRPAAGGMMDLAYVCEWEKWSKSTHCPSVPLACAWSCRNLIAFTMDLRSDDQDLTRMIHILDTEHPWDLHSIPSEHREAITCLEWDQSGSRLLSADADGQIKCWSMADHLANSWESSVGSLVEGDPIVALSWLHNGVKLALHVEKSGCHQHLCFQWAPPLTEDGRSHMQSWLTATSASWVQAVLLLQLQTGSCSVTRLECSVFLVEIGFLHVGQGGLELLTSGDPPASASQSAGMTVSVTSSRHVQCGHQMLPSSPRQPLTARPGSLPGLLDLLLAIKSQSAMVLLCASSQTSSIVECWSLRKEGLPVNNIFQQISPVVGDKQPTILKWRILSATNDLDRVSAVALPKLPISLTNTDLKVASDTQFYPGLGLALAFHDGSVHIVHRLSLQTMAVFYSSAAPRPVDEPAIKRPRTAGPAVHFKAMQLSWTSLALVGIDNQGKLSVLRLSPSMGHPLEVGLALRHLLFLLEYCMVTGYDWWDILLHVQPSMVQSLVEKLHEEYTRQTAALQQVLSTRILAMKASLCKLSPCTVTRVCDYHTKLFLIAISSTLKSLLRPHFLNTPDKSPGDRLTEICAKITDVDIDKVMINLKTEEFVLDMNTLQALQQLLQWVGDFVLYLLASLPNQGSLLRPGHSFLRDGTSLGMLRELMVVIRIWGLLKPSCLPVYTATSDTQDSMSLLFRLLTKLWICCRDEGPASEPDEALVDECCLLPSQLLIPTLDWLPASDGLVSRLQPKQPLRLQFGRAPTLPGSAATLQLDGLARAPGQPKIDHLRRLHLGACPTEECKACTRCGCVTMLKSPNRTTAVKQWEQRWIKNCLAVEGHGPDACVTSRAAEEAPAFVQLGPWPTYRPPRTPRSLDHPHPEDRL
UniProt A0A0D9S185: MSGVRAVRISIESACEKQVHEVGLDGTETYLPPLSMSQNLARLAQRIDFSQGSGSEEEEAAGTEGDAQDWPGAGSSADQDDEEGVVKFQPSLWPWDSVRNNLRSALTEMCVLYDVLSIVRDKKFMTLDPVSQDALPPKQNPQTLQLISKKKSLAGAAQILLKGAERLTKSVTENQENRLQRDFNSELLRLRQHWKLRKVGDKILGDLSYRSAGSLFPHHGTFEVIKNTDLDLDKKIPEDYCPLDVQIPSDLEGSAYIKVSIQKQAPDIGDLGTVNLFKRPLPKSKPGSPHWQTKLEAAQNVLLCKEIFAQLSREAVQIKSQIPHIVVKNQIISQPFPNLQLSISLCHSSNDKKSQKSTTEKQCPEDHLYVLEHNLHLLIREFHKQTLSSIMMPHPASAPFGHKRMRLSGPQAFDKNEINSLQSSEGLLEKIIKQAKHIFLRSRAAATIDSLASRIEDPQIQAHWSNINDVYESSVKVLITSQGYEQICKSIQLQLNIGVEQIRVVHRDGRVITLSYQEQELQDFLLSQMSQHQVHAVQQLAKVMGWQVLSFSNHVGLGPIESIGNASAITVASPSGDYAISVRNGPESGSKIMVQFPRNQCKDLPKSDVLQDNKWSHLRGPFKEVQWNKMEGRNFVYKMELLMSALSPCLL
UniProt A0A0D9RYS7: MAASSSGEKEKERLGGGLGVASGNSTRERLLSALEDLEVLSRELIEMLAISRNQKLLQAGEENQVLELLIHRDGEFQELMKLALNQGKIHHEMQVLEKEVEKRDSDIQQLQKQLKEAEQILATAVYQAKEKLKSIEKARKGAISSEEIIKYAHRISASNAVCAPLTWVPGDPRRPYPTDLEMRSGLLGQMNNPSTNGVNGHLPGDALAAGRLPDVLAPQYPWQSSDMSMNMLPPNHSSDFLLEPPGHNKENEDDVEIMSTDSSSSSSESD

In article PMC3795685:

Biological target: T1, TAP-tagged wild-type Infected Cell Polypeptide 4 (ICP4) of HSV-1 strain KOS (herpes simplex virus type 1 (HSV-1), strain KOS) (UniProt P08392)
T1 sequence: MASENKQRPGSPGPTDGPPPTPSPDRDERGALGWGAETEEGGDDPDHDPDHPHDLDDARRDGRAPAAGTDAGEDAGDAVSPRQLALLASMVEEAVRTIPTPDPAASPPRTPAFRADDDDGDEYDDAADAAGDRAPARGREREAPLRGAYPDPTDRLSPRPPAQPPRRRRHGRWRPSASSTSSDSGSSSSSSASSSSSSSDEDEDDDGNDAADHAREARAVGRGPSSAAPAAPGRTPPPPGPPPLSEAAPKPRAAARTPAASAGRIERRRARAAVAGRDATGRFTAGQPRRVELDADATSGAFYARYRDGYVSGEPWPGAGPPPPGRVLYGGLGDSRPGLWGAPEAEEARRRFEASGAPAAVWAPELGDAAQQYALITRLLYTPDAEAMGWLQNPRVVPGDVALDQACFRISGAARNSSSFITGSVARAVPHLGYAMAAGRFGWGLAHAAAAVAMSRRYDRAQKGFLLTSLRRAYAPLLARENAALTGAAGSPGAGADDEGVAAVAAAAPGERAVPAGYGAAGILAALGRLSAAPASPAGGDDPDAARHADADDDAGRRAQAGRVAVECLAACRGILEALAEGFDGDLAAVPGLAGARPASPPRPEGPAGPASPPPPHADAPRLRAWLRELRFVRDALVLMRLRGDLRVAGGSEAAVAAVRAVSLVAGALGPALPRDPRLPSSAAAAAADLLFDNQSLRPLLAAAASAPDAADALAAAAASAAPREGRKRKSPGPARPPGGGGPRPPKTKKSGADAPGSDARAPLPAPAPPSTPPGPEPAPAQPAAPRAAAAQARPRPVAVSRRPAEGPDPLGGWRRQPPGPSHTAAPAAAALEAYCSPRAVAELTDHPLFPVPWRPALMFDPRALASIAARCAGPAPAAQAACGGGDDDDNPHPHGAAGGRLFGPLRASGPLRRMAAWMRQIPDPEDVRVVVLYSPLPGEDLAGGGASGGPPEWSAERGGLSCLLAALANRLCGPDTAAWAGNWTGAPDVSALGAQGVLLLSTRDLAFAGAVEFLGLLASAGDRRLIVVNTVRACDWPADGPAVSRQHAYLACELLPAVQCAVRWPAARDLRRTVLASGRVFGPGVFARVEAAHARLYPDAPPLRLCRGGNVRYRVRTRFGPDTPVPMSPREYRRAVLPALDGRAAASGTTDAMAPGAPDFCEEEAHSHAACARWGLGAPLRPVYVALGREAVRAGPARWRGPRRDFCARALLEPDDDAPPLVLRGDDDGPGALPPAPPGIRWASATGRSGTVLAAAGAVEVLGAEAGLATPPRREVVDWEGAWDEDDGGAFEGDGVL
Experiment: affinity purification with mass spectrometry; TAP-tagged ICP4 from nuclear extracts (0.4 M KCl) of Vero cells infected at 10 pfu/cell, harvested 3, 6 or 12 hpi (TAP-n208: 6 hpi); benzonase treated; streptavidin agarose overnight at 4°C; washes with 20 mM Hepes KOH pH 7.9, 200 mM KCl, 2 mM EDTA, 0.1% NP40; elution with 2 mM biotin; LC-MS/MS; untagged KOS or n208 infections as controls

Row | Substance | binding
1 | CPSF1 | binds
2 | TAF6 | binds
3 | MED15 (from UniProt A0A0D9RIW4 1-787) | binds
4 | TAF9B | binds
5 | TAF1 | binds
6 | TAF4 | binds
7 | CHD4 | binds
8 | Med26 | no binding
9 | MED23 | binds
10 | MED1 | binds
11 | MED27 | binds
12 | MED25 | binds
13 | MED31 | binds
14 | MAT1 | binds
15 | CDK7 | no binding
16 | MED13 | binds
17 | TAF5 | binds
18 | TAF3 | binds
19 | cyclin H | no binding
20 | XPB | binds
21 | cyclin dependent kinase (CDK) 8 | binds
22 | MED14 | binds
23 | TAF2 | binds
24 | CPSF7 | binds
25 | CPSF5 | no binding
26 | TAF8 | binds
27 | Brahma | binds

Row | Substance | binding
28 | MED18 (from UniProt A0A0D9S812 1-208) | binds
29 | CPSF3L | binds
30 | FIP1L1 | binds
31 | BAZ1B kinase | binds
32 | RUVBL1 | binds
33 | MED16 (from UniProt A0A0D9RJH3 1-871) | binds
34 | HDAC2 | binds
35 | TAF12 | binds
36 | TAF10 | binds
37 | TAF7 | binds
38 | CPSF4 | binds
39 | MED12 | binds
40 | CPSF6 | no binding
41 | XPD | binds
42 | CHD3 | binds
43 | MED6 | binds
44 | SMARCA4 | binds
45 | MED17 (from UniProt A0A0D9S185 1-651) | binds
46 | TAF11 | binds
47 | RUVBL2 | binds
48 | TBP | binds
49 | CPSF2 | binds
50 | ARP5 | binds
51 | MED7 | binds
52 | MED4 (from UniProt A0A0D9RYS7 1-270) | binds
53 | cyclin C | binds
54 | SMARCC2 | binds

No constants are given. Whether binding was seen depends on the method and setting. Binding seen in cells or lysates may run through a third protein. Here binding means that the protein was enriched with, or labelled near, the bait; the list need not be complete. No binding means not detected with the bait. Where a sequence is shown, tags or fusion partners need not be part of it.
